Reference: paper PMC12019842
These are yes or no findings as the source states them, for the method shown. In cells and extracts the contact can be indirect. A yes stands for co-enrichment or nearness to the bait. Other partners may have been found.

The chains behind the UniProt entries cited, without tags or fusion partners.
UniProt O54833: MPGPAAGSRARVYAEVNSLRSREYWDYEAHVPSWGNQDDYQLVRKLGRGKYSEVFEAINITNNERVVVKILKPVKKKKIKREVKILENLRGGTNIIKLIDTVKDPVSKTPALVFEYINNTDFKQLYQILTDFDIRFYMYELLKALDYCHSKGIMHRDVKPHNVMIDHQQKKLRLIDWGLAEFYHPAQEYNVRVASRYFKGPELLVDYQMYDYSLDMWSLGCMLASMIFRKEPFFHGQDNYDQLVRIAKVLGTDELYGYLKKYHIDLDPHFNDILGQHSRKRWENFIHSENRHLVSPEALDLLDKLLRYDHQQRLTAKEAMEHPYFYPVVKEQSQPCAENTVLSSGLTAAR
UniProt Q9CW03: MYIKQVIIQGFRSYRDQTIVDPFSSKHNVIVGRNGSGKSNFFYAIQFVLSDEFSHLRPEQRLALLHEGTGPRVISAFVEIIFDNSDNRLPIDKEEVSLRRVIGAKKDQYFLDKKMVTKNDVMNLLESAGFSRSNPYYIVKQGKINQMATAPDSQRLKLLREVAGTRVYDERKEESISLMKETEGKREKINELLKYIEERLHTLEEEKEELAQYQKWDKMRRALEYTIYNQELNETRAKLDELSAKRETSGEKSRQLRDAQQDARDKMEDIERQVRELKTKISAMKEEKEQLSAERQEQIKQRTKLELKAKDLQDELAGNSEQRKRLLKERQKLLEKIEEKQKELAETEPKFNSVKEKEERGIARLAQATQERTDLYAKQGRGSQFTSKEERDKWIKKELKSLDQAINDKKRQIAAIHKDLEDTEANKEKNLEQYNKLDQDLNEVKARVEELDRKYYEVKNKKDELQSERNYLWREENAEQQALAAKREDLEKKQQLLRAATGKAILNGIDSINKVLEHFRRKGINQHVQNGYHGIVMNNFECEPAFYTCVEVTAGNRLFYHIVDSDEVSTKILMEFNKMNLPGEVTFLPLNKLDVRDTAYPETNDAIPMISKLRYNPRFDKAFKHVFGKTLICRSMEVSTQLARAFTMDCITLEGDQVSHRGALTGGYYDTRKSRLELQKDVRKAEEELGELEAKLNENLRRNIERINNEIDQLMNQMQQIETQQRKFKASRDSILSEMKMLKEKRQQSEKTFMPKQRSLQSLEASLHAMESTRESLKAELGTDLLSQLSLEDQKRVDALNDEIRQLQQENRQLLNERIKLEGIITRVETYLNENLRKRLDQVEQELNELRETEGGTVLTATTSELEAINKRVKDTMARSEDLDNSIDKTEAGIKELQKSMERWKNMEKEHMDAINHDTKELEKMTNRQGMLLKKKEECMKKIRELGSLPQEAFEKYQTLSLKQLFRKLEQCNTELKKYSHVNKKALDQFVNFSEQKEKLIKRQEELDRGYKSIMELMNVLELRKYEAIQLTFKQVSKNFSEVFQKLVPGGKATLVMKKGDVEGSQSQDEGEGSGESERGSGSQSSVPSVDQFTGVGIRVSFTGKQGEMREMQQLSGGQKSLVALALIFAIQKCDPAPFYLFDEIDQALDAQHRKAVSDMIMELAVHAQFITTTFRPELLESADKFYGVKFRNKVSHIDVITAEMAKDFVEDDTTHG
UniProt P10922: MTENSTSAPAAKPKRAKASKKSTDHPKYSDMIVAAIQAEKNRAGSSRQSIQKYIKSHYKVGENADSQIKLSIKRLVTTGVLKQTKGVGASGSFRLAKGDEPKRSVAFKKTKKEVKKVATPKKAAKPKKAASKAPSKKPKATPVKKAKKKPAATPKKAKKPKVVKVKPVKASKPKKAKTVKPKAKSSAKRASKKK
UniProt P62631: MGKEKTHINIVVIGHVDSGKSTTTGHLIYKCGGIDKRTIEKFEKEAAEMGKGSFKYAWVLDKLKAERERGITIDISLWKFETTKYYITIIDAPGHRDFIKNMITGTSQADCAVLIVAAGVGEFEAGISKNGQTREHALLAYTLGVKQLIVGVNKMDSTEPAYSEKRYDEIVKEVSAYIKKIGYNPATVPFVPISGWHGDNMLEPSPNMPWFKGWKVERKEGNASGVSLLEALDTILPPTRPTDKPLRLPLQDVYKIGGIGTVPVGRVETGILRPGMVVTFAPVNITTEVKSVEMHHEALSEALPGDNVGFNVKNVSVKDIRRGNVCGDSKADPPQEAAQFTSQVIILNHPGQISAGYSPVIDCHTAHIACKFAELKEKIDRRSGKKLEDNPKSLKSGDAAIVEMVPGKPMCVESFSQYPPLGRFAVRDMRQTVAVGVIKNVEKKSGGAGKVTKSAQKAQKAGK
UniProt Q60737: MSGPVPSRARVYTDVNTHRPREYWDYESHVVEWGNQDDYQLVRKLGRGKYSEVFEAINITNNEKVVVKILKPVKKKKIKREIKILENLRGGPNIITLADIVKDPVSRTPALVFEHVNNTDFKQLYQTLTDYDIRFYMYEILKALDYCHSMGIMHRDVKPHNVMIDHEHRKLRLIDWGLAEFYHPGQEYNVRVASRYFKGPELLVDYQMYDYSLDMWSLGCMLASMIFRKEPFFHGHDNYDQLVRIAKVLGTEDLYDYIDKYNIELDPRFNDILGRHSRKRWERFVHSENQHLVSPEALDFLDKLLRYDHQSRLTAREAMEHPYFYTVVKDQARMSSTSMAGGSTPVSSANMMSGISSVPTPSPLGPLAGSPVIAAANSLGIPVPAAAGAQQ
UniProt P50752: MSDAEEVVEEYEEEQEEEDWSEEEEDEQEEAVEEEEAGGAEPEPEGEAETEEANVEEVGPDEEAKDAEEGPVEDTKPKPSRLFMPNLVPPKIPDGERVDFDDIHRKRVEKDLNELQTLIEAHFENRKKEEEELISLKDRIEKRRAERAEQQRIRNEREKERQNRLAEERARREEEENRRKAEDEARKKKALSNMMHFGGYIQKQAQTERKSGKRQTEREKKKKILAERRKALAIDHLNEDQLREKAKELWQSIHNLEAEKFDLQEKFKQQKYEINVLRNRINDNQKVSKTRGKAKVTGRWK
UniProt Q7TPR4: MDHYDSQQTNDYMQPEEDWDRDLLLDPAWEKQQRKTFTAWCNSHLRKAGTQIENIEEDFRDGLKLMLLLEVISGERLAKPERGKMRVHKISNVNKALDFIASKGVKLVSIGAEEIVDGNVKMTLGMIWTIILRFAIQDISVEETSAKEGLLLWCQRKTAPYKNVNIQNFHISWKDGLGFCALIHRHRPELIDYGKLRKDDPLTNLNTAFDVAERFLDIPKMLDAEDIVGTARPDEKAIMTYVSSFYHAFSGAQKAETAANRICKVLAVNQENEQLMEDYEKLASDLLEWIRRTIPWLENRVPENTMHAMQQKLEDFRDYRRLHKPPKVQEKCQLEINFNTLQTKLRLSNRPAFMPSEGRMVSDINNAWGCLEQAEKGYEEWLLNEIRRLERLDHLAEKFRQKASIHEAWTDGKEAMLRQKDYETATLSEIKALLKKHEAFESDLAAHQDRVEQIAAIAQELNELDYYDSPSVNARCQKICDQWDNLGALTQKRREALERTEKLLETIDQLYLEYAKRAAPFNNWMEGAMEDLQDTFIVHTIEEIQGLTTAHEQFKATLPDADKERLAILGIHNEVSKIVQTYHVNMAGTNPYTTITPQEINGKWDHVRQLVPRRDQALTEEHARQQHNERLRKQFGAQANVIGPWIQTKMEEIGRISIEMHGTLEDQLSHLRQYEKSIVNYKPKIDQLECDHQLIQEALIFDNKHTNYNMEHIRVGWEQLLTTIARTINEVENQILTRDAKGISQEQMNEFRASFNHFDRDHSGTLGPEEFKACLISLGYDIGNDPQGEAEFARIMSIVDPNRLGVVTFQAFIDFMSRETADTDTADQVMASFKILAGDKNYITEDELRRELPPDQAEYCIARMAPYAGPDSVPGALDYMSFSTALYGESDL
UniProt Q62234: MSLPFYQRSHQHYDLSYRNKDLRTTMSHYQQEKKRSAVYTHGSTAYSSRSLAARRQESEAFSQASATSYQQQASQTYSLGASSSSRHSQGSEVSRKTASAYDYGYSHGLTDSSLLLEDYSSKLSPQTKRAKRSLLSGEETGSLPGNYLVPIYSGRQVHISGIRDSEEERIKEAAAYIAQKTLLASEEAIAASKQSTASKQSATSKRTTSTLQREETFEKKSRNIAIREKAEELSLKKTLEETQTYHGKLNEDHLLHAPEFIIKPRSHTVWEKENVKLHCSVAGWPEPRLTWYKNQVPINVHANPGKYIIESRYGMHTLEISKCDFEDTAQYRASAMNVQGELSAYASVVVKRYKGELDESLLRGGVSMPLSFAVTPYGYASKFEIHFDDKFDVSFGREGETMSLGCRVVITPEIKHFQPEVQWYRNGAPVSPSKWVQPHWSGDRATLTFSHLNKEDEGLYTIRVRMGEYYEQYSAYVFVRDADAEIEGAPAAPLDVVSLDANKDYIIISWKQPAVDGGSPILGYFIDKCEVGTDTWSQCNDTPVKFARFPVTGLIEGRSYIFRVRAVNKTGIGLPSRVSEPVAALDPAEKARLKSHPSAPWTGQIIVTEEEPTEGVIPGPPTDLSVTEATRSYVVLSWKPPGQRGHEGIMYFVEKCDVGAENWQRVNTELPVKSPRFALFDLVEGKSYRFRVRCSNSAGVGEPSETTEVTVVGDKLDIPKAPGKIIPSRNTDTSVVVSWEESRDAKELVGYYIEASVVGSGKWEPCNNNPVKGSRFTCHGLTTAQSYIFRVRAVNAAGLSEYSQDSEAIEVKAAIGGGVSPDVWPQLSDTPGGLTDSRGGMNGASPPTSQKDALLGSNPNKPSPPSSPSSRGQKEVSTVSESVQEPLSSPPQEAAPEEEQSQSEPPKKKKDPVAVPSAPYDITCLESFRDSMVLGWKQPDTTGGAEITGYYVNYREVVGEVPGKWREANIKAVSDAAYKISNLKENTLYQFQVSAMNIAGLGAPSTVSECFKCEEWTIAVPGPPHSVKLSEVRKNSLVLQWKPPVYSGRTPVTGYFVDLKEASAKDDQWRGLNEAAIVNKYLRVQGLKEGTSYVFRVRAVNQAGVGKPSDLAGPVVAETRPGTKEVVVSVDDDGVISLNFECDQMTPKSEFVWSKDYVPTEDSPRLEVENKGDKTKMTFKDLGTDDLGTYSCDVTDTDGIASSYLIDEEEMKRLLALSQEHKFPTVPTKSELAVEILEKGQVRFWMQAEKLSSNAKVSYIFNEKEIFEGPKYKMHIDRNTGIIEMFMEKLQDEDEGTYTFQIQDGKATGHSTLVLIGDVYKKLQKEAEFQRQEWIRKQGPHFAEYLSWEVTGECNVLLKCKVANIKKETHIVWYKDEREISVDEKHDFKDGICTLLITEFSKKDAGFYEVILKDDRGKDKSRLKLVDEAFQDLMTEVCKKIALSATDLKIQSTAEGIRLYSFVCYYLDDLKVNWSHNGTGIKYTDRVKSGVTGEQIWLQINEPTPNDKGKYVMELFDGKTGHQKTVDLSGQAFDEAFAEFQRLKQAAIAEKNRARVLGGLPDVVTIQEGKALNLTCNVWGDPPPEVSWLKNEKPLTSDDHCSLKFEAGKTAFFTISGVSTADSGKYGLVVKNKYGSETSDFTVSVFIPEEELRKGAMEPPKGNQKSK

target: casein kinase II subunit alpha (Csnk2a2) (mouse (endogenous in mouse heart)) (UniProt O54833); test: affinity purification with mass spectrometry; Co-IP from frozen mouse heart homogenate (three mice) with anti-Troponin T-C (CT3) or anti-CSNK2A2 antibody, IgG as negative control; lysis buffer 10 mM Hepes, 10 mM potassium chloride, 0.1% Triton X-100, pH 7.4; antibody-antigen incubation 18 h at 4 °C; elute against unbound fraction and IgG elute by DIA-MS (FDR <0.05, log2FC > 1)

binding, binds:
Smc3 (from UniProt Q9CW03 1-1217), H1-0 (from UniProt P10922 1-194), Eef1a2 (from UniProt P62631 1-463), Csnk2a1 (from UniProt Q60737 1-391) (enzyme)

target: cardiac troponin T (Tnnt2) (mouse (endogenous in mouse heart)) (UniProt P50752); test: as above

binding, binds:
Actn1 (from UniProt Q7TPR4 1-892), Macf1 (from UniProt Q9QXZ0 1-7354), Myom1 (from UniProt Q62234 1-1667)
